Assay results reported in US20040266862A1, “Method of improving animal tissue quality by supplementing the animal diet with mixed tocotrienols” (priority 2003, published 2004).

Tested on: swine
Assay: 2002 swine feed test: fat and TBARS content of raw ground pork
Assay type: in vivo
Settings: raw ground pork (bellies)
Excerpt: Applicants conducted a second swine feeding trial to further determine the effects on meat quality of supplementation of a swine diet with alpha-tocopherol (AT), gamma-tocopherol (GT) or mixed tocotrienols (MT). Seventy-two barrows (˜75 lbs.) were transported to the Pioneer Livestock Nutrition Center (PLNC) and randomly placed into individual pens with water and feed provided ad libitum. The pigs received a common diet for seven days. On the eighth day the pigs were weighed individually and a uniform group of sixty pigs with an average body weight of about 75 pounds was selected. The pigs were randomly assigned one of five dietary treatments with 12 pigs per treatment. The feeding trial was initiated on Mar. 12, 2002 and ended on Jun. 19, 2002. The pigs were fed a corn-soybean meal diet formulated to provide adequate levels of all nutrients. In addition, one of five dietary treatments was assigned to each group: control, 300 ppm AT, 450 ppm GT, 150 ppm MT, and 300 ppm MT. To each diet a corn oil premix and a ground corn premix were added with the corn oil premix as a carrier for the supplemental tocopherols and the ground corn premix as the carrier for the MT. The MT supplement was obtained commercially from Fuji Chemical Industries (U.S.A.) Inc. of Robbinsville, N.J., and contained 7.5% alpha-, 12.3% gamma- and 3.0% delta-tocotrienol, as well as 7.2% alpha-tocopherol. […]

| Structure (SMILES) | Fat, % (450 ppm in diet) | Fat, % (300 ppm in diet) |
| --- | --- | --- |
| Cc1c(O)cc2c(c1C)O[C@](C)(CCC[C@H](C)CCC[C@H](C)CCCC(C)C)CC2 [GT, gamma-tocopherol] | 37.59% |  |
| Cc1c(C)c2c(c(C)c1O)CC[C@@](C)(CCC[C@H](C)CCC[C@H](C)CCCC(C)C)O2 [AT, alpha-tocopherol] |  | 37.31% |
